Values are the deposited “Percent Effect”, in %.
The record does not define 0% and 100%; most values in the screen are far below 50% and negative numbers occur (in some assays of this library far below -100).
Compounds were drawn at random from those tested, without regard to their results.
Two or more numbers in one place are separate tests of the same structure; such repeats can differ widely.

By UniProt entry, the sequences of proteins in these tests, tags left out.
UniProt P9WNZ1, whole entry: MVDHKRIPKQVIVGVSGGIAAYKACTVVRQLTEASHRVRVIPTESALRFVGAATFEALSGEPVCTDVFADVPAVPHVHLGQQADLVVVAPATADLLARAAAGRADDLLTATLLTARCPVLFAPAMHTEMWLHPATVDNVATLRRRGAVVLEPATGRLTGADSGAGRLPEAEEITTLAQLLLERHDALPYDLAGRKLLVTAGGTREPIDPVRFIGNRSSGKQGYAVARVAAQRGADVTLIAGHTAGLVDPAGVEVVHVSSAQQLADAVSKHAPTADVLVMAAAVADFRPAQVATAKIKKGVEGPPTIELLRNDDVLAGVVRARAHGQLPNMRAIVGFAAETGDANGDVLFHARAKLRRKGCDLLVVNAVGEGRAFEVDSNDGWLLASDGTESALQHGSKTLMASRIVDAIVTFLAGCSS

Leishmania in macrophages: 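Cell assay of Leishmania donovani living inside macrophages; the read-out is not stated. Tested at 30 µM. The record gives no direction; compounds that gave an IC50 in retests scored well above the rest, so higher reads as stronger inhibition. About 69,000 compounds were tested under these conditions; 1.5% (about 1,000) showed 50% or more at least once.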
CoaBC: 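Enzyme assay of CoaBC with a phosphate dye (Biomol Green) read at 650 nm. Target: Coenzyme A biosynthesis protein CoaBC, Mycobacterium tuberculosis (UniProt P9WNZ1). Concentration: 30 µM. Higher reads as stronger inhibition, judged from the few compounds that gave an IC50. Most strong results did not repeat in a second test. Size under these conditions: about 67,000 compounds, about 40 of them at 50% or above in at least one test.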

For COCCN(Cc1cnn(C)c1)CC1CCOC1 (stereo not given) the result was Leishmania in macrophages: -5.95%; CoaBC: 10.58% & 25.73%.
For O=C(O)C(F)(F)F.O=C(O)C(F)(F)F.[H][C@]12CCN(C(=O)Cc3ccc(C)cc3)C[C@@]1([H])OCCN(CCN(C)C)C2 the result was Leishmania in macrophages: -8.567%.
For Cc1ccc(CN2CCOC3(COCCN(S(C)(=O)=O)C3)C2)o1.O=C(O)C(F)(F)F (stereo not given) the result was Leishmania in macrophages: 18.31%.
For CN1CCN(C[C@H]2CC[C@@H](Cc3ccc(CN4CCCC4)cc3)O2)CC1 the result was Leishmania in macrophages: 15.09%; CoaBC: -15.91%.
For COc1ccc(C(C)C)cc1C1CC(=O)NCc2nc(N(C)C)sc21 (stereo not given) the result was Leishmania in macrophages: 60.09%; CoaBC: 12.55%.
For Cc1cnc(N2CCOCC3(CCN(c4ccccn4)C3)C2)nc1.O=C(O)C(F)(F)F.O=C(O)C(F)(F)F (stereo not given) the result was Leishmania in macrophages: -8.514%.
For COCCn1c(C(=O)NCC(C)C(=O)O)cc2ccccc21 (stereo not given) the result was Leishmania in macrophages: 16.91%; CoaBC: -6.087%.
For Cn1cc(CCNC(=O)CCc2ccc3c(c2)OCO3)cn1 the result was Leishmania in macrophages: -11.66%; CoaBC: 9.781%.
For CC(C)c1cc(N2CC[C@H](F)C2)n2nccc2n1 the result was Leishmania in macrophages: 28.83%; CoaBC: 5.159%.
For CC(C)c1ncncc1C(=O)N1CCN(Cc2cccnc2)CC1 the result was Leishmania in macrophages: 14.32%; CoaBC: 4.215%.
For CCn1cc2c(n1)CN(Cc1cnn(C)c1)CC2COCC1CC1 (stereo not given) the result was CoaBC: 5.584%.
For CN(C)C[C@@H]1C[C@@H]2CN(C(=O)c3ccoc3)CC[C@@H]2N1CC1CC1 the result was CoaBC: -0.7255%.
For CN(Cc1cnn(C)c1)CC(O)c1ccc2c(c1)OCO2 (stereo not given) the result was Leishmania in macrophages: -17.05%; CoaBC: 12.14%.
For O=C(COc1ccc(Cl)cc1)N1CCN(c2cnccn2)CC1 the result was Leishmania in macrophages: 10.21%; CoaBC: -4.826%.
For Cn1cc(C(=O)NCc2cn3c(n2)CN(CC2CCOCC2)CC3)cn1.O=C(O)C(F)(F)F the result was Leishmania in macrophages: 4.382%.
For COCCCN1CC2(CCCN(c3ncc4nc[nH]c4n3)C2)CCC1=O (stereo not given) the result was Leishmania in macrophages: 15.72%; CoaBC: 3.922%.
For CC(=O)c1cccc(OC(C)C(=O)Nc2cnn(CCN(C)C)c2)c1 (stereo not given) the result was Leishmania in macrophages: 14.39%; CoaBC: 3.808%.
For CCSc1cncc(NCc2ccc(N3CCNC(=O)C3)cc2)n1 the result was Leishmania in macrophages: 6.459%; CoaBC: -0.4032%.
For CCN1CC(COC(=O)c2cc(C)nn2CC)CC1=O (stereo not given) the result was Leishmania in macrophages: 3.201%; CoaBC: 3.899%.
For Cc1ccc(CN2CCN(c3ncccc3C(N)=O)CC2CCO)cc1 (stereo not given) the result was Leishmania in macrophages: 8.919%; CoaBC: -4.087%.
For Cn1cc(N2CCCC(Nc3ccc4c(c3)CCCO4)C2=O)cn1 (stereo not given) the result was Leishmania in macrophages: 13.88%; CoaBC: 5%.
For Cn1ccnc1CN1CCCN(Cc2noc(C3CC3)n2)CC1 the result was Leishmania in macrophages: 25.6%; CoaBC: 4.987%.
For O=C(O)C(F)(F)F.O=C(O)C(F)(F)F.[H][C@@]12CCN(Cc3ccccn3)[C@]1([H])CC[C@H](COCC(=O)N(C)C)O2 the result was Leishmania in macrophages: 7.483%.
For O=C(O)C(F)(F)F.[H][C@@]12CN(C(=O)c3cccs3)C[C@]1([H])OCCN2CC1CCCO1 (stereo not given in full) the result was Leishmania in macrophages: -6.892%.
For CCn1nc(C)c(CCN2CC3(CCOC3)CCC2=O)c1C (stereo not given) the result was Leishmania in macrophages: -20.97%; CoaBC: 6.511%.
For CCC(CO)N(Cc1ccncc1)Cc1c[nH]nc1-c1ccc(F)cc1 (stereo not given) the result was Leishmania in macrophages: 2.634%; CoaBC: 8.468%.
For Cc1cnn(CC2CCCCN2C(=O)c2ccc(NC3CC3)nc2)c1 (stereo not given) the result was Leishmania in macrophages: 33.76%; CoaBC: 0%.
For CCc1nccn1C1CCCN(C(=O)c2cnn3cccnc23)C1 (stereo not given) the result was Leishmania in macrophages: 3.09%; CoaBC: 2.212%.
For c1cncc(-c2ccc3c(c2)C2(CCNCC2)CC3)c1 the result was Leishmania in macrophages: 49.66%.
For CCC1CN(CC(=O)NC2(C#N)CCCC2)CCN1CCOC (stereo not given) the result was Leishmania in macrophages: 19.62%; CoaBC: 5.423%.
For CNC(=O)[C@@]12CCC3(CCN(C(=O)C(C)C)CC3)[C@@H]1CN(S(C)(=O)=O)C2 the result was CoaBC: 5.185%.
For CC(NCc1ccc(OCC(N)=O)cc1)c1ccc(Cl)cc1Cl (stereo not given) the result was CoaBC: -1.124%.
For CSc1nnc(C2CCN(C(=O)N3CCCC3)CC2)n1C the result was Leishmania in macrophages: 0.02678%; CoaBC: -2.632%.
For O=C(NC[C@]1(O)CN(Cc2ccccc2F)C[C@H]1O)c1cscn1 the result was Leishmania in macrophages: 8.702% & 26.86%; CoaBC: 2.53%.
For O=C(O)C(F)(F)F.[H][C@@]12OCCN(CC3CCOCC3)[C@@]1([H])CC[C@H]2OC the result was Leishmania in macrophages: 15.49%.
For CCC(=O)N1CCc2nc(N3CCOCC3)nc(N(C)C)c2CC1 the result was Leishmania in macrophages: 6.111%.
For Cc1nn(C)c(C)c1CC(=O)N1CCC(Nc2cccnn2)CC1 the result was Leishmania in macrophages: -3.543%; CoaBC: -0.266%.
For CS(=O)(=O)c1nnc(NC(=O)CCc2cc(F)ccc2F)[nH]1 the result was Leishmania in macrophages: 14.08%; CoaBC: 6.098%.
For O=C(CNC(=O)N1CCc2c([nH]c3ccc(Cl)cc23)C1)NC1CCCC1 the result was Leishmania in macrophages: 21.97%; CoaBC: 0.2525%.
For Cc1cc(F)cc(CN2CCCn3nc(CNS(C)(=O)=O)cc3C2)c1 the result was Leishmania in macrophages: 1.106%; CoaBC: 5.159%.
For c1ccc(CC2CCN(Cc3ccnc(-c4cccnc4)n3)CC2)cc1 the result was CoaBC: 10.28%.
For O=C(Cc1ccccc1)N1CCn2cc(Cn3cncn3)nc2C1 the result was Leishmania in macrophages: 6.178%; CoaBC: -1.089%.
For COCCN1CCCn2c(nc(Cn3cncn3)cc2=O)C1.O=C(O)C(F)(F)F the result was Leishmania in macrophages: 36.57%.
For CCNC(=O)C1CCN(c2cc(-c3ccccc3)nc3cc(C)nn23)C1 (stereo not given) the result was Leishmania in macrophages: 2.136%; CoaBC: 6.237%.
For CCS(=O)(=O)c1ccccc1N1CCC(NC2CCCC2)CC1 the result was Leishmania in macrophages: 21.39%; CoaBC: -0.7653%.
For CCCNC(=O)C1CCN(CC(O)c2ccccc2C(F)(F)F)CC1 (stereo not given) the result was Leishmania in macrophages: -11.37%; CoaBC: 2.915%.

5 of the entries, repeated:

{"compound": "Cc1ccc(CN2CCN(c3ncccc3C(N)=O)CC2CCO)cc1", "stereo": "stereo not given", "Leishmania in macrophages": 8.919, "CoaBC": -4.087}
{"compound": "CCn1nc(C)c(CCN2CC3(CCOC3)CCC2=O)c1C", "stereo": "stereo not given", "Leishmania in macrophages": -20.97, "CoaBC": 6.511}
{"compound": "Cc1cnc(N2CCOCC3(CCN(c4ccccn4)C3)C2)nc1.O=C(O)C(F)(F)F.O=C(O)C(F)(F)F", "stereo": "stereo not given", "Leishmania in macrophages": -8.514}
{"compound": "CCCNC(=O)C1CCN(CC(O)c2ccccc2C(F)(F)F)CC1", "stereo": "stereo not given", "Leishmania in macrophages": -11.37, "CoaBC": 2.915}
{"compound": "O=C(NC[C@]1(O)CN(Cc2ccccc2F)C[C@H]1O)c1cscn1", "Leishmania in macrophages": "8.702 & 26.86", "CoaBC": 2.53}

From ChEMBL document CHEMBL3988442, “University of Dundee, Small-Polar-MMV Screening Library” (2021).